Test results taken from PMC7819943, “Rice protein-binding microarrays: a tool to detect cis-acting elements near promoter regions in rice”.
This is one part of the list.

Chains of the proteins cited; added tags and fusions are not shown.
UniProt Q0JBA9, entry or part of it: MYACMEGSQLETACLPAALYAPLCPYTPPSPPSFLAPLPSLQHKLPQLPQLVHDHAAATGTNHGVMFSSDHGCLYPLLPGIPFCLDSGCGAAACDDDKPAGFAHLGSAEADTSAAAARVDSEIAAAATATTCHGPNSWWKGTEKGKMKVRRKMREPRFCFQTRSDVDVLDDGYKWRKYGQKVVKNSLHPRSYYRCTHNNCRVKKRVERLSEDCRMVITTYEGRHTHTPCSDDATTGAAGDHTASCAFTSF

target: OsWRKY34 (Oryza sativa, UniProt Q0JBA9 1-250); experiment: protein-binding microarray (RPBM); PBS, 2% BSA, 51.3 ng/ul salmon testes DNA, 50 uM zinc acetate, 200 nM TF, 25 C, 1 h; high values mean tight binding; conditions: protein: recombinant; tags: N-terminal polyhistidine and DsRed monomer fusion (pET32a); label: CyDye5-dUTP incorporated in the synthesized complementary strand; 3' TTTTT single-stranded linker to array surface; dsDNA, one strand shown
Outline: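 Binding signal is defined as the fluorescence intensity of each feature in arbitrary units, read on an Axon 4000B scanner. Transcription factors with N-terminal polyhistidine and DsRed fusions came from E. coli BL21-CodonPlus and were purified on Ni–NTA. They were incubated at 200 nM for 1 h at 25 °C on a custom Agilent array that had been made double-stranded with Cy5-dUTP, with 50 µM zinc acetate present, and the array was washed.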

Row | Sequence | binding signal
1 | TTACTCAACTCCTAATACTACATGTGATATCATTGAAAAACGGAGTCACCTAGTGCAG | 8460 fluorescence intensity (a.u.)
2 | CTGTGATGAGTTTGCTGTGTTGTCATCTTCTGTTAGTGGACGGAGTCACCTAGTGCAG | 11100 fluorescence intensity (a.u.)
3 | TCAAATCGTCCCTCGGACCTACTCGATTTTCGTGGCTTTCCGGAGTCACCTAGTGCAG | 8520 fluorescence intensity (a.u.)
4 | TCCTTGGCCTTTTTCATACTTTTCTTTTTCTTTTTCTTCGCGGAGTCACCTAGTGCAG | 10600 fluorescence intensity (a.u.)
5 | TACGTAACTTTCCATATGCCATCTCTCGACGTTGCACAAACGGAGTCACCTAGTGCAG | 8850 fluorescence intensity (a.u.)
6 | TCGTATACACTTGCTAGTACATAATTTATTTTTATTTTACCGGAGTCACCTAGTGCAG | 10000 fluorescence intensity (a.u.)
7 | CCAAGGTTGTAATATTATAATTTTTCCTGCTCTATCAATACGGAGTCACCTAGTGCAG | 8630 fluorescence intensity (a.u.)
8 | TTTTTTTGCAAATCACCCCACCCAATTTTACAATTAACGACGGAGTCACCTAGTGCAG | 9040 fluorescence intensity (a.u.)
9 | ATACCGTGATTGGGATTACCTGTGACCTTGCCTATTTGACCGGAGTCACCTAGTGCAG | 9120 fluorescence intensity (a.u.)
10 | CATGATCGAACACCTGTAACGTTGTTTGTGCTCCGTGGGTCGGAGTCACCTAGTGCAG | 9300 fluorescence intensity (a.u.)
11 | CGTCTCGCCGTCTAGCTTATTAATGTGTACTCAGTCTACACGGAGTCACCTAGTGCAG | 11200 fluorescence intensity (a.u.)
12 | GGGAGGGCCCACCACCAGCCGCCATTCTCTCCTCGATTTCCGGAGTCACCTAGTGCAG | 8080 fluorescence intensity (a.u.)
13 | ATCACTTTATGCGCACTTTTCTTTGACGCCTTCCACAATTCGGAGTCACCTAGTGCAG | 9560 fluorescence intensity (a.u.)
14 | ACTGTTATTGTTAGATCCACTGCTCGAGTCAAATGTATTACGGAGTCACCTAGTGCAG | 8610 fluorescence intensity (a.u.)
15 | ACACTATTATATATACGGCCATCGATCCCAAGTTCCCGAACGGAGTCACCTAGTGCAG | 8110 fluorescence intensity (a.u.)
16 | TAGGGGAAGGCGGGACGTTACATTGGGCGGGCAGTCTATGCGGAGTCACCTAGTGCAG | 11300 fluorescence intensity (a.u.)
17 | AGTGTAGGTCGTCATGACAGGATCCTCTGCCCCTTTTACTCGGAGTCACCTAGTGCAG | 8260 fluorescence intensity (a.u.)
18 | ATTGACCACAATTTCAGTATATATACTTCTCTCTTGGTTGCGGAGTCACCTAGTGCAG | 8280 fluorescence intensity (a.u.)
19 | GAGAAATTTGTGTGGTTGTATTTTTTTTTGTGTATTTACACGGAGTCACCTAGTGCAG | 11900 fluorescence intensity (a.u.)
20 | CACTACCAGCCACTCCTACTCTACCTCTATCAACAAGTTCCGGAGTCACCTAGTGCAG | 9810 fluorescence intensity (a.u.)
21 | CCATGTTCTTATTACGTGGACACGTTGAGTCTGTGAAACTCGGAGTCACCTAGTGCAG | 8940 fluorescence intensity (a.u.)

Reformatted tab-delimited: entries from further up.
Row	Sequence	binding signal
18	ATTGACCACAATTTCAGTATATATACTTCTCTCTTGGTTGCGGAGTCACCTAGTGCAG	8280 fluorescence intensity (a.u.)
19	GAGAAATTTGTGTGGTTGTATTTTTTTTTGTGTATTTACACGGAGTCACCTAGTGCAG	11900 fluorescence intensity (a.u.)
20	CACTACCAGCCACTCCTACTCTACCTCTATCAACAAGTTCCGGAGTCACCTAGTGCAG	9810 fluorescence intensity (a.u.)

Going on with the list.

Row | Sequence | binding signal
22 | GCCTGCCGCCGCTCCCACCGCCCACCACCCGCCACCCGCCCGGAGTCACCTAGTGCAG | 8810 fluorescence intensity (a.u.)
23 | TTCTTTCTGTTTTGCCCTTACCTCAGCTCTGCTTGTGAATCGGAGTCACCTAGTGCAG | 8810 fluorescence intensity (a.u.)
24 | TTCCTAGGCTGTGTTTAGTTCAGTGCAAAGTTTGGATTTTCGGAGTCACCTAGTGCAG | 8080 fluorescence intensity (a.u.)
25 | CCGCCGCCACCGCCGCCGCCGCCGCCGCTTCACTCGCCGGCGGAGTCACCTAGTGCAG | 10300 fluorescence intensity (a.u.)
26 | TGTCTCTTTCTCTCTGTTGGGCCATTCTAGCTCATCTCCTCGGAGTCACCTAGTGCAG | 9970 fluorescence intensity (a.u.)
27 | TCGATTTCAGATTGTTTTTTTTTTCTGTGCGTCGTGATTTCGGAGTCACCTAGTGCAG | 10700 fluorescence intensity (a.u.)
28 | ATCAAACCTACACACACTAAGCTAACACACATTTACAGTCCGGAGTCACCTAGTGCAG | 8920 fluorescence intensity (a.u.)
29 | TAGGGATGGGGAAGAGGAGTCAGCGCAGTCGCCGCGGATCCGGAGTCACCTAGTGCAG | 8360 fluorescence intensity (a.u.)
30 | AACCCTGGGTTTCCGTGTCCAACTTTGACTGTCCATCTTACGGAGTCACCTAGTGCAG | 9940 fluorescence intensity (a.u.)
31 | AACATTTATCTTCTTTCTTTTCTATATGGCATATAAGGGTCGGAGTCACCTAGTGCAG | 9670 fluorescence intensity (a.u.)
32 | TTGTGTTTGTGTGTGTGTTTGTGCTGATTTGGGCATTGGTCGGAGTCACCTAGTGCAG | 8490 fluorescence intensity (a.u.)
33 | TTTCCCTTCAGTTTCAGTTGTGTTTGTGTCGTGTACAGGCCGGAGTCACCTAGTGCAG | 11400 fluorescence intensity (a.u.)
34 | ATTCAGTTTTATCTAATTTTTCTCATTTTATCTGATTTTTCGGAGTCACCTAGTGCAG | 10200 fluorescence intensity (a.u.)
35 | GACTCCATATATCCTTTCTTGGTAGCTCACCCATTGCCATCGGAGTCACCTAGTGCAG | 8380 fluorescence intensity (a.u.)
36 | TTCTTGTACAAGGTTGGTTCTTTAACTTTCACTACACCATCGGAGTCACCTAGTGCAG | 10200 fluorescence intensity (a.u.)
37 | CAACTTATCTCTTTACGACTAATTTTTTTACACTGTTAGTCGGAGTCACCTAGTGCAG | 10500 fluorescence intensity (a.u.)
38 | GTGTGTGTGTCTGTGACAAGTTCCAAGCTAGCAACAACAACGGAGTCACCTAGTGCAG | 9030 fluorescence intensity (a.u.)
39 | AAATCCACATTCTCTGGTCCCACACCTGTCACCGTCCCATCGGAGTCACCTAGTGCAG | 9090 fluorescence intensity (a.u.)
40 | AATCTACGCTTCAACATTGGGGAATCAGGGGTTTTCTCTCCGGAGTCACCTAGTGCAG | 8650 fluorescence intensity (a.u.)
41 | CGGTGGTGGATTGAGGCGGTGGGATTCGGCGGTGTTTAAACGGAGTCACCTAGTGCAG | 13400 fluorescence intensity (a.u.)
42 | TCTCTCTCTCTCTCTCTCTCTCTCTCTCTCTCTCTCCGGCCGGAGTCACCTAGTGCAG | 8470 fluorescence intensity (a.u.)
